{
  "source": "paper PMC10530651",
  "about": "“Mechanisms of Regulation of the CHRDL1 Gene by the TWIST2 and ADD1/SREBP1c Transcription Factors”",
  "key": {"[1]": {"molecular_target": "T1, TWIST1 (Homo sapiens) (UniProt Q15672)", "T1 sequence (looked up, limits assumed)": "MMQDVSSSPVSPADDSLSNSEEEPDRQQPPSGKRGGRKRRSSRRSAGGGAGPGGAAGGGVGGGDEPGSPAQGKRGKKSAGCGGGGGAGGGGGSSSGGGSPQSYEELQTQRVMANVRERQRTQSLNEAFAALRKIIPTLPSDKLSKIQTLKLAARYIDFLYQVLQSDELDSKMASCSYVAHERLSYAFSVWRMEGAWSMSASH", "test": "EMSA", "details": "weakly detected; EMSA: 20 mM HEPES pH 7.9, 60 mM KCl, 1 mM MgCl2, 0.5 mM DTT, 10% glycerol, 10 µL with 1-3 µL TnT lysate; competitor at least 50x molar excess; 6% native gel, 0.5X TBE; protein translated in vitro; protein details: Myc; label: 32P as probe, unlabeled as competitor"}, "[2]": {"molecular_target": "T2, TWIST2 (Homo sapiens) (UniProt Q8WVJ9)", "T2 sequence (looked up, limits assumed)": "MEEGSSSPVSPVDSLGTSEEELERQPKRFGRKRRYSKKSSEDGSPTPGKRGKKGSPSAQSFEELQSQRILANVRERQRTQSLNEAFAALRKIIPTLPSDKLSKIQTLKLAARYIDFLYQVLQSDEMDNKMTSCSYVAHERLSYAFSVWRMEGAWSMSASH", "test": "competition with a labelled probe", "details": "partial competition vs labeled CH2700EA; EMSA: 20 mM HEPES pH 7.9, 60 mM KCl, 1 mM MgCl2, 0.5 mM DTT, 10% glycerol, 10 µL with 1-3 µL TnT lysate; competitor at least 50x molar excess; 6% native gel, 0.5X TBE; protein translated in vitro; protein details: N-terminal Myc; label: unlabeled competitor"}},
  "note": "The exact form of at least one protein or probe is not confirmed. The comparison behind a weaker result is the experiment's own reference, which may not be listed here. Tags and fusion partners may be left off the protein sequences shown.",
  "data": [
    {"sequence": "TGGTGGTGGTCACATGAATATACACATGCGATAAAATT (double strand) [CH2700EA]", "values": [
      {"measurement": "binding result", "setting": "[1]", "result": "binds more weakly"}
    ]},
    {"sequence": "TGGTGGTGGTCACATGAATATACGCACGCGATAAAATT (double strand) [CH2700EWAM]", "values": [
      {"measurement": "binding result", "setting": "[2]", "result": "binds more weakly"}
    ]}
  ]
}
